{
  "source": "patent US9993489B2",
  "about": "“Methods for treating solid tumor cancers using a histone deacetylase inhibitor and an IκB kinase inhibitor” (St. John's University, priority 2016, dated 2018)",
  "tested_on": "Human cervical cancer HeLa cells",
  "assay": "IL-8 mRNA levels by quantitative RT-PCR in HeLa cells after HDAC inhibitor treatment (Example 2)",
  "type": "cell-based",
  "settings": "5, 10, 20, 40 nM romidepsin, 48 hours, FIG. 3B",
  "method": "Methods: Human cervical cancer HeLa cells were obtained from American Type Culture Collection and cultured in Eagle's Minimum Essential Medium supplemented with 10% FBS and antibiotics (100 units/mL penicillin and 100 μg/mL streptomycin) at 37° C., 5% CO2, humidified atmosphere. 5×10^5 cells/ml were seeded in 6-well plates and incubated 48 hours with 0; 1; 1.5; 2; and 5 μM vorinostat, or 0; 5; 10; 20; and 40 nM romidepsin. An equivalent volume of DMSO (final concentration 0.1% v/v) was used as a vehicle control. After 48 hours, cells were collected by centrifugation for analysis of cytokine mRNA levels of IL-8, TNF, and IL-6 by quantitative RT-PCR. Total RNA was isolated by using RNeasy mini-kit (Qiagen), and the real time RT-PCR was performed as described in Example 1. The results are presented as means+/−SE. Data were analyzed by using InStat software package (GraphPAD). Statistical significance was evaluated by using ANOVA, and p<0.05 was considered significant.",
  "note": "For at least one compound, name, drawing or mass did not settle the structure.",
  "data": [
    {"smiles": "C/C=C1\\NC(=O)[C@H]2CSSCC/C=C/[C@H](CC(=O)N[C@H](C(C)C)C(=O)N2)OC(=O)[C@H](C(C)C)NC1=O", "note": "[romidepsin]", "values": [
      {"measurement": "IL-8 mRNA expression in cervical cancer cells", "value": "significantly increase"}
    ]}
  ]
}
